Assay results as given in paper PMC12040169 (PLOS Biology, 2025).
The list shows a part of the results.

Each compound was assayed on T1, CTL2-GFP (C. trachomatis L2/434/Bu, GFP-expressing). Details: bulk GFP, single well; 28.5 h, 10 µM; inhibitor.
T1 construct: L2/434/Bu, GFP-expressing
Parameters: species or system HeLa; Intracellular C. trachomatis growth in HeLa cells, bulk GFP fluorescence relative to DMSO

Compound	% of control remaining
CN(CCC#N)S(=O)(=O)c1ccc(OC(F)(F)F)cc1 [CBK044415]	124.232%
CCN(CC(=O)NCc1ccc(F)cc1)C(=O)c1ccc(C#N)cc1 [CBK305841]	124.141%
Cc1ccccc1COc1cccn2c(N(C)CC3CCCO3)c(C)nc12 (centres unmarked) [CBK147231]	119.87%
COc1ccc(C)cc1S(=O)(=O)Nc1cc(N2CCN(CC3CC3)CC2)c2occc2c1 [CBK073624C]	114.587%
COc1cccc(CN2CCC(Cc3ccccc3)CC2)c1 [CBK126436]	123.505%
CCOC(=O)c1sc2nc(C(C)N(C)Cc3ccco3)[nH]c(=O)c2c1C (centres unmarked) [CBK306148]	94.7575%
CC(C)OC(=O)c1cc2n(n1)C(C(F)(F)F)CC(c1cccs1)N2 (centres unmarked) [CBK307176]	103.443%
CC[C@@H](Cn1nc2c(cc1=O)CCCCC2)NC(=O)c1ccco1 [CBK284553]	152.065%
O=C(Cc1ccccc1)N1CCc2c([nH]c3ccccc23)C12CCNC2 (centres unmarked) [CBK059461]	117.471%
COc1ccc(-n2nnc(C(=O)N3CCCCC3C(N)=O)c2C)cc1 (centres unmarked) [CBK305551]	92.6113%
Cc1ccc(C(=O)NNC(=O)c2cccnc2)cc1 [CBK261045]	100%
COc1ccccc1-c1cc2nc(C)cc(NCC3CCCO3)n2n1 (centres unmarked) [CBK304277]	131.67%
COC(=O)c1ccc(N2CCN(Cc3nc(C4CC4)no3)C(C)C2)cc1 (centres unmarked) [CBK305744]	115.885%
OCCN1CC2(CCN(CC3CCCO3)CC2)c2ccccc21 (centres unmarked) [CBK143959]	128.764%
O=C(NCCCN1CCOCC1)NC(=O)c1ccc(Cl)cc1 [CBK269531]	152.21%
O=C(CSc1nnc(-c2ccccc2)c(-c2ccccc2)n1)Nc1ccc(N2CCOCC2)cc1 [CBK269684]	124.45%
O=C(Cn1c(NCCO)nc2ccccc21)c1ccc([N+](=O)[O-])cc1 [CBK262139B]	85.3283%
O=C(NC[C@H]1O[C@@H](CC(=O)N2CCN(c3ccccc3)CC2)[C@H](O)[C@@H]1O)c1ccco1 [CBK288919]	105.396%
COc1cccc(CNC2CC2)c1OCc1ccccc1 [CBK270009C]	137.67%
COc1cc(C(N)C(=O)O)ccc1OCc1ccccc1 (centres unmarked) [CBK286909]	145.436%
O=c1c(N2CCNCC2)nccn1CC1COc2ccccc2O1 (centres unmarked) [CBK024845T]	100.534%
CC1(C)C/C(=N/O)c2cc3c(nc2C1)CC(C)(C)C/C3=N\O [CBK261629]	108.732%
COC(=O)c1c(NC(=S)NNC(=O)c2nn(C)cc2I)sc2c1CCC2 [CBK267074]	148.021%
Cc1cc(-c2cc(=O)n(Cc3ccccc3C)nc2-c2ccco2)on1 [CBK282878]	98.3213%
COc1cccc(OCC(=O)NCC(c2cccs2)N2CCOCC2)c1 (centres unmarked) [CBK304664]	118.725%
CC(C)(CNC(=O)c1ccc(=O)n(CC(=O)N2CCc3ccccc32)c1)c1ccccc1F [CBK286020]	98.1078%
O=C(c1c[nH]c2ccccc12)N1CCC(Cc2ccccc2)CC1 [CBK200180]	105.222%

Compound	% of control remaining
CN1CCN(c2ccc(-c3cc(Nc4cccc(OCc5ccccc5)c4)ncn3)cn2)CC1 [CBK090918]	144.544%
Cc1c(C(=O)N2CCC(c3nc(C)n4ccsc34)CC2)cnn1C [CBK285201]	81.7631%
CSc1nc2ccc(NC(=O)CSc3nnnn3-c3ccccc3)cc2s1 [CBK263549]	100%
CC1(C(=O)Nc2cnn(Cc3ccc(F)cc3)c2)CCCO1 (centres unmarked) [CBK282585]	94.9322%
COc1cccc(-c2csc(N3CCN(C(=O)Nc4ccccc4)CC3)n2)c1 [CBK070275]	103.399%
S=c1[nH]nc(COc2ccccc2)n1C1CCCCC1 [CBK014411]	119.559%
CC(C)(CN1CCCC1)CN1CCC(O)(c2ccccc2F)CC1 [CBK282798]	132.425%
O=C1NCCNC(=O)C2(C/C=C/COc3ccccc31)CCN(C(=O)CCN1CCCCC1)CC2 [CBK292026]	96.0209%
CCC1CCCCN1C(=O)c1ccnc(C)c1 (centres unmarked) [CBK081093]	111.748%
Cc1nc(C(Cc2ccsc2)NC(=O)C2CCC(=O)N2)sc1C (centres unmarked) [CBK284780]	119.953%
O=C(O)Cn1cnc(-c2ccc(Br)cc2)c1 [CBK262441]	131.41%
O=C(CN(c1cc(C(F)(F)F)ccc1Cl)S(=O)(=O)c1ccccc1)NCc1cccnc1 [CBK264607]	100.263%
CCOC(=O)c1ccc(N2CC(C(=O)O)CC2=O)cc1 (centres unmarked) [CBK268106]	89.2998%
COC(=O)c1sccc1NS(=O)(=O)c1ccccc1C(F)(F)F [CBK034717]	93.4813%
Cc1ccc2[nH]c(-c3cncn3C(C)CN3CCOCC3)c(C)c2c1 (centres unmarked) [CBK281794]	96.3779%
O=C(Cc1ccccn1)NC(Cc1cccs1)c1ccccn1 (centres unmarked) [CBK282243]	122.784%
O=C(CSc1nnc2c(n1)[nH]c1ccccc12)NCCOc1ccccc1 [CBK268358]	96.0093%
O=C(Nc1cccc(S(=O)(=O)N2CCCC2)c1)c1nc[nH]n1 [CBK268353]	103.791%
CCN1CCC(Oc2nccnc2OCCN2CCOCC2)CC1 [CBK082931]	144.764%
O=S(=O)(Nc1cccc(C(F)(F)F)c1)c1ccc(N2CCCNCC2)c2ccccc12 [CBK003929C]	98.3693%
CCCCSc1nnc(-c2ccc(Br)cc2)o1 [CBK027012]	122.228%
COc1ccc2sc(C)nc2c1 [CBK028488]	163.066%
Cc1ncc(CN(C)C(=O)c2cccc(NC(=O)C3CCCCC3)c2)s1 [CBK306295]	140.582%
O=C(N/N=C/c1c(O)ccc2ccccc12)c1cnccn1 [CBK262400]	109.029%
NS(=O)(=O)c1ccc(CCNC2CC(=O)N(CCc3ccccc3)C2=O)cc1 (centres unmarked) [CBK263502]	100%
COC(=O)C1C(=O)NC(SCC(=O)Nc2cccc(Cl)c2C)=C(C#N)C1c1ccccc1F (centres unmarked) [CBK265830]	193.054%
CCOc1cc(/C=C2\SC(=S)N(NC(=O)c3cccnc3)C2=O)ccc1O [CBK262759]	100.285%

Among those listed so far, 14 have a halogen.
Compound	% of control remaining
CN(CCC#N)S(=O)(=O)c1ccc(OC(F)(F)F)cc1 [CBK044415]	124.232%
CCN(CC(=O)NCc1ccc(F)cc1)C(=O)c1ccc(C#N)cc1 [CBK305841]	124.141%
CC(C)OC(=O)c1cc2n(n1)C(C(F)(F)F)CC(c1cccs1)N2 (centres unmarked) [CBK307176]	103.443%
O=C(NCCCN1CCOCC1)NC(=O)c1ccc(Cl)cc1 [CBK269531]	152.21%
COC(=O)c1c(NC(=S)NNC(=O)c2nn(C)cc2I)sc2c1CCC2 [CBK267074]	148.021%
CC(C)(CNC(=O)c1ccc(=O)n(CC(=O)N2CCc3ccccc32)c1)c1ccccc1F [CBK286020]	98.1078%
CC1(C(=O)Nc2cnn(Cc3ccc(F)cc3)c2)CCCO1 (centres unmarked) [CBK282585]	94.9322%
CC(C)(CN1CCCC1)CN1CCC(O)(c2ccccc2F)CC1 [CBK282798]	132.425%
O=C(O)Cn1cnc(-c2ccc(Br)cc2)c1 [CBK262441]	131.41%
O=C(CN(c1cc(C(F)(F)F)ccc1Cl)S(=O)(=O)c1ccccc1)NCc1cccnc1 [CBK264607]	100.263%
COC(=O)c1sccc1NS(=O)(=O)c1ccccc1C(F)(F)F [CBK034717]	93.4813%
O=S(=O)(Nc1cccc(C(F)(F)F)c1)c1ccc(N2CCCNCC2)c2ccccc12 [CBK003929C]	98.3693%
CCCCSc1nnc(-c2ccc(Br)cc2)o1 [CBK027012]	122.228%
COC(=O)C1C(=O)NC(SCC(=O)Nc2cccc(Cl)c2C)=C(C#N)C1c1ccccc1F (centres unmarked) [CBK265830]	193.054%

(list continues)

Compound	% of control remaining
O=C(CSc1ccc(-c2ccc(-n3ccnc3)cc2)nn1)NCc1ccco1 [CBK287717]	110.56%
CN(C/C=C/c1ccccc1[N+](=O)[O-])CCc1ccccn1 [CBK261890]	111.618%
C[C@@H]1CN(C(=O)c2cscn2)C[C@H](C)O1 [CBK200371]	99.4324%
CCOC(=O)C1(Cc2cc(-c3ccccc3F)no2)CCCNC1 (centres unmarked) [CBK284577]	165.536%
Cn1ccnc1C1(O)CCN(C(=O)Cc2ccccc2F)CC1 [CBK283585]	125.056%
Cc1ccc(C(=O)NCCCN2CCC3(CC2)OCCc2c3[nH]c3ccccc23)cc1 [CBK113485]	19.9429%
O=C(CO)N1CC2(CCN(CCC(c3ccccc3)c3ccccc3)CC2)c2ccccc21 [CBK131513]	85.9925%
CC(C)(C)c1ccc(-c2ccc3ccc(=O)[nH]c3n2)cc1 [CBK073716]	132.987%
Cc1oc(C2CC2)cc1C(=O)N1CCCC1c1nc2ccccc2[nH]1 (centres unmarked) [CBK283741]	120.203%
O=c1nc(-c2cc(Br)cs2)[nH]c2ccc(Cl)cc12 [CBK018959]	113.652%
CCn1c(CN2CC(C)CC(C)C2)nc2c1c(=O)n(C)c(=O)n2C (centres unmarked) [CBK306030]	111.24%
O=C(O)c1ccc(/C=N\NC(=O)C2COc3cc4ccccc4cc3O2)cc1 (centres unmarked) [CBK262792]	100.965%
Cc1cnc(CNS(=O)(=O)c2c(C)noc2C)cn1 [CBK062328]	108.01%
Cc1ccc(S(=O)(=O)Nc2ccccc2C(N)=O)cc1 [CBK056893]	106.27%
NC(CC(=O)O)c1ccc(OCCc2ccccc2)cc1 (centres unmarked) [CBK287053]	134.414%
O=C(CSc1nnc(-c2cccnc2)n1-c1ccc(Br)cc1)Nc1cc(C(F)(F)F)ccc1Cl [CBK266099]	103.818%
O=C(NC1CCN(C(=O)CCn2ccc3ccncc32)CC1)C1CC1 [CBK284718]	139.713%
Nc1ccc(C(=O)Nc2ccc(Nc3cc(-c4ccccc4OCc4ccccc4)ncn3)cc2)cc1 [CBK091092]	171.036%
Cn1c(=O)[nH]c(=O)c2c1nc(CN1CCOCC1)n2CCc1ccccc1 [CBK269910]	124.208%
CNc1sc(C(=O)c2ccc(OC)c(OC)c2)c(N)c1C#N [CBK270194]	130.542%
CC(=O)Nc1cc(NC(=O)CCCC(=O)O)ccc1Cl [CBK263949]	100%
O=C(c1ccc(Br)o1)n1cc(C(F)(F)F)ccc1=O [CBK022391]	108.543%
CCOC(=O)N1CCC(NC(=O)c2cnn3c(C)c(Cc4ccccc4)c(C)nc23)CC1 [CBK160293]	106.622%
COc1c(Cl)cc(Cl)cc1CNCc1cccnc1 [CBK270142C]	141.371%
CC(C)(C)CC(=O)N[C@H]1C[C@H]2C(=O)Nc3ccccc3C(=O)N2C1 [CBK289352]	104.587%
CCOC(=O)c1sc(NS(=O)(=O)c2ccc(C(=O)O)cc2)cc1C [CBK296623]	138.146%

Individual results from above:
In % of control remaining, O=C(NC1CCN(C(=O)CCn2ccc3ccncc32)CC1)C1CC1 [CBK284718] is entered as 139.713%
In % of control remaining, CN(C/C=C/c1ccccc1[N+](=O)[O-])CCc1ccccn1 [CBK261890] is entered as 111.618%
